Data as given in PubChem BioAssay AID504791 (Drosophila RNAi Screening Center, 2011).
In all, the deposit lists about 23,000 reagents; this is an unselected part of those with a known target gene and a result. In the full data, 199 (0.86%) got an active call. 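Plate-scaled ratios behind the calls are not deposited; printed light signals are raw; many rows marked increased or decreased are still called inactive.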 A plus sign joins genes that one reagent is predicted to hit. Not stated in the record: the direction of the score.

- Aim: 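Genes of the fly required for silencing by miRNA, siRNA or endo-siRNA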 (primary screen)
- Cell system: Drosophila S2-derived reporter cells
- Knock-down reagent: long dsRNA against Drosophila genes, about 150-250 ng dsRNA per well (siRNA assay); about 80-120 ng (miRNA assay)
- Timing: about 5 days (siRNA assay); about 4 days (miRNA assay)
- Treatment: copper sulfate induction of reporters: 25 µM (siRNA assay); 200 mM stated (miRNA assay), 1-2 days before reading
- Read-out: 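Per-well ratio of Renilla over firefly light, expressed relative to that plate's average ratio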
- Rule for the call: 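a well was a first-pass pick when its plate-scaled ratio rose above 1.5 (siRNA assay) or 1.6 (miRNA assay), or dropped below 0.6; a gene counted only if two separate dsRNAs agreed on retest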

Gene | DRSC id | stable siRNA reporter change | miRNA reporter change | stable assay Renilla, run 1 (luminescence) | stable assay firefly, run 1 (luminescence) | Call
CG8785 | DRSC07266 | – | – | 8729 | 6.29e5 | inactive
CG32568 | DRSC19913 | – | – | 6371 | 5.19e5 | inactive
Elo68alpha | DRSC22725 | – | – | 4136 | 4.61e5 | inactive
CG12814 | DRSC14552 | – | – | 7442 | 4.23e5 | inactive
CG12814 | DRSC14553 | – | – | 6275 | 4.70e5 | inactive
CG10343 | DRSC02041 | – | – | 7026 | 5.97e5 | inactive
Gycbeta100B | DRSC14039 | – | – | 6435 | 2.55e5 | inactive
Gycbeta100B | DRSC14040 | – | – | 8115 | 3.48e5 | inactive
Gycbeta100B | DRSC16691 | – | – | 7680 | 5.75e5 | inactive
idc | DRSC15680 | – | – | 8240 | 2.83e5 | inactive
CG30496 | DRSC06805 | – | – | 8946 | 4.53e5 | inactive
CG7627 | DRSC03065 | – | – | 64076 | 7.62e5 | inactive
CG15219 | DRSC03715 | – | – | 5999 | 4.72e5 | inactive
CG7546 | DRSC08885 | – | – | 4479 | 3.49e5 | inactive
CG7546 | DRSC10871 | – | – | 5016 | 3.63e5 | inactive
CG7546 | DRSC22148 | – | – | 9758 | 7.77e5 | inactive
CG10616 | DRSC09750 | – | – | 7231 | 3.31e5 | inactive
Uqcc1 + CG9948 | DRSC09690 | – | – | 5951 | 3.98e5 | inactive
CG10748 | DRSC09797 | – | – | 5312 | 3.14e5 | inactive
CG10663 | DRSC09770 | – | – | 7985 | 4.87e5 | inactive
CG3348 | DRSC15480 | – | – | 6458 | 4.21e5 | inactive
Mbs | DRSC09414 | – | – | 5306 | 3.72e5 | inactive
Mbs | DRSC10525 | – | – | 6691 | 3.09e5 | inactive
Mbs | DRSC10553 | – | – | 6679 | 4.41e5 | inactive
Gr59f | DRSC04499 | – | – | 6619 | 3.77e5 | inactive
mip40 | DRSC06541 | – | – | 8283 | 3.92e5 | inactive
CG1575 | DRSC18069 | – | – | 8050 | 4.90e5 | inactive
CG14034 | DRSC02359 | – | – | 7971 | 3.86e5 | inactive
TTLL5 | DRSC14181 | – | – | 10246 | 3.91e5 | inactive
Cyp308a1 | DRSC20238 | – | – | 6544 | 5.36e5 | inactive
Or35a | DRSC03389 | – | – | 6534 | 3.58e5 | inactive
toy | DRSC17222 | reporter ratio lowered past the hit cutoff | – | 3964 | 4.33e5 | inactive
brwl | DRSC01080 | – | – | 4135 | 3.09e5 | inactive
brwl | DRSC02729 | – | – | 5272 | 2.68e5 | inactive
CheA29a | DRSC21486 | – | – | 9143 | 4.66e5 | inactive
CG10738 | DRSC09792 | – | – | 5651 | 3.82e5 | inactive
CG11779 | DRSC14384 | – | – | 10369 | 5.46e5 | inactive
TwdlE | DRSC02392 | – | – | 6858 | 3.67e5 | inactive
CG42824 + CG42823 | DRSC13230 | – | – | 4307 | 4.27e5 | inactive
CG1486 | DRSC20508 | – | – | 6855 | 4.73e5 | inactive
CSN4 | DRSC07350 | – | – | 4072 | 3.68e5 | inactive
RpS4 | DRSC11272 | – | reporter ratio lowered past the hit cutoff | 5195 | 3.16e5 | inactive
CG18789 | DRSC02696 | – | – | 7956 | 4.58e5 | inactive
SoYb | DRSC02901 | – | – | 7390 | 4.45e5 | inactive
scpr-A + scpr-C + scpr-B | DRSC15715 | – | – | 6538 | 3.15e5 | inactive
bnb | DRSC20314 | – | – | 6546 | 4.43e5 | inactive
Prx6c | DRSC06080 | – | – | 5624 | 3.79e5 | inactive
sip3 | DRSC15402 | – | – | 7098 | 4.58e5 | inactive
sip3 | DRSC29484 | – | reporter ratio lowered past the hit cutoff | – | – | inactive
Not1 | DRSC06787 | reporter ratio lowered past the hit cutoff | – | 6866 | 6.39e5 | active
Not1 | DRSC06794 | reporter ratio lowered past the hit cutoff | – | 9441 | 8.15e5 | active
CG12817 | DRSC14555 | – | – | 6023 | 3.24e5 | inactive
Diedel | DRSC14317 | – | – | 4867 | 3.84e5 | inactive
Srrm234 | DRSC07955 | – | – | 6906 | 4.82e5 | inactive
Srrm234 | DRSC08606 | – | – | 8038 | 3.24e5 | inactive
msps | DRSC17004 | – | – | 10461 | 4.15e5 | inactive
Prim1 | DRSC11137 | – | – | 7214 | 4.18e5 | inactive
tei | DRSC07616 | – | – | 7272 | 4.32e5 | inactive
COX3 (retired record) | DRSC21279 | – | – | 5034 | 3.89e5 | inactive
CG13727 | DRSC10055 | – | – | 6586 | 3.88e5 | inactive
AOX3 | DRSC15955 | – | – | 8703 | 6.46e5 | inactive
CG14609 | DRSC12553 | – | – | 7434 | 3.96e5 | inactive
s-cup | DRSC06277 | – | – | 4899 | 2.23e5 | inactive
s-cup | DRSC06278 | – | – | 5063 | 2.72e5 | inactive
CG42324 | DRSC08431 | – | – | 6099 | 3.56e5 | inactive
CG42324 | DRSC08432 | – | – | 5435 | 3.28e5 | inactive
Cpr66D | DRSC10640 | – | – | 5287 | 2.53e5 | inactive
Cpr66D | DRSC10646 | – | reporter ratio lowered past the hit cutoff | 5259 | 2.44e5 | inactive
Cpr66D | DRSC23178 | – | – | 3655 | 3.63e5 | inactive
CG1648 | DRSC06610 | – | – | 4719 | 3.57e5 | inactive
ATPsynF | DRSC04482 | – | – | 20082 | 2.07e6 | inactive
Stlk | DRSC22687 | – | – | 3840 | 3.63e5 | inactive
CG12224 | DRSC14480 | – | – | 7114 | 4.12e5 | inactive
RpL37-1 | DRSC20149 | – | – | 5635 | 5.74e5 | inactive
RpL37-1 | DRSC21646 | – | – | 10132 | 4.11e5 | inactive
CG8197 | DRSC07105 | – | – | 5163 | 2.71e5 | inactive
CG18809 | DRSC19818 | – | – | 6175 | 5.72e5 | inactive
CG13958 (retired record) | DRSC02300 | – | – | 6658 | 4.32e5 | inactive
pont | DRSC17029 | – | – | 4471 | 3.31e5 | inactive
Mi-2 + Su(Tpl) | DRSC09640 | – | – | 4731 | 3.36e5 | inactive
emei | DRSC10897 | – | – | 3652 | 4.24e5 | inactive
emei | DRSC22684 | – | – | 3851 | 3.17e5 | inactive
CG32483 | DRSC07902 | – | – | 4323 | 3.07e5 | inactive

Part of the list above in another layout:
Srrm234 [DRSC08606] — stable assay Renilla, run 1 (luminescence): 8038; stable assay firefly, run 1 (luminescence): 3.24e5; Call: inactive
msps [DRSC17004] — stable assay Renilla, run 1 (luminescence): 10461; stable assay firefly, run 1 (luminescence): 4.15e5; Call: inactive
Prim1 [DRSC11137] — stable assay Renilla, run 1 (luminescence): 7214; stable assay firefly, run 1 (luminescence): 4.18e5; Call: inactive
tei [DRSC07616] — stable assay Renilla, run 1 (luminescence): 7272; stable assay firefly, run 1 (luminescence): 4.32e5; Call: inactive
COX3 (retired record) [DRSC21279] — stable assay Renilla, run 1 (luminescence): 5034; stable assay firefly, run 1 (luminescence): 3.89e5; Call: inactive
CG13727 [DRSC10055] — stable assay Renilla, run 1 (luminescence): 6586; stable assay firefly, run 1 (luminescence): 3.88e5; Call: inactive
AOX3 [DRSC15955] — stable assay Renilla, run 1 (luminescence): 8703; stable assay firefly, run 1 (luminescence): 6.46e5; Call: inactive
